A short description of this data set: general procedure: Fmoc solid-phase peptide synthesis; benzyloxybenzyl alcohol resin (Wang resin) with Fmoc-S-tert-butylcysteine coupled. Particulars: for cyclisation yield: cyclisation step; for step yield: purification step, of the monomer.

Strings that start with PEPTIDE1 are HELM notation: dots part the residues, brackets hold end groups and non-standard residues.

In the case of “PEPTIDE1{C.G.F.H.F.G.G.S.D.G.M.G.S.S.G.G.V.S.W.G.I.G.G.D.G.A.A.H.C}$PEPTIDE1,PEPTIDE1,1:R3-29:R3$$$V2.0”, the cyclisation yield amounted to 26.7% and the step yield is reported as 12.1%.

“PEPTIDE1{C.E.G.V.H.F.D.A.S.G.G.T.N.V.P.K.G.G.E.H.G.F.K.C}$PEPTIDE1,PEPTIDE1,1:R3-24:R3$$$V2.0” came in with a step yield of 12.2%.

On to “cyclo(-S-cystinyl-glycyl-tyrosyl-histidyl-phenylalanyl-glycyl-glycyl-seryl- aspartyl-glycyl-glutamyl-glycyl-seryl-aspartyl-glycyl-glycyl-valyl-seryl-tryptophanyl-glycyl-leucyl-glycyl-glycyl-aspartyl-glycyl-alanyl-alanyl-histidyl-cystinyl-S) (CGYHFGGSDGEGSDGGVSWGLGGDGAAHC; cyclic)”, for which the cyclisation yield worked out at 33.2% and the step yield came to 11.5%.

In the case of “PEPTIDE1{C.T.N.R.N.G.G.D.G.G.L.E.I.N.G.W.W.G.G.I.G.D.G.D.G.A.W.V.A.G.R.G.F.E.S.N.C}$PEPTIDE1,PEPTIDE1,1:R3-37:R3$$$V2.0”, the step yield was determined as 12.9%.
